PubChem BioAssay AID493246 – Drosophila RNAi Screening Center | 2011

Assay: 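Genome-wide search for dsRNAs that reduce cell number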 (primary screen)
Cells: Drosophila Kc and S2R+ cells
Knock-down reagent: long dsRNA against Drosophila genes
Detection: 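Cell number per well after knock-down, printed as raw plate values; calls were based on per-plate z-scores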
Reading the numbers: Kc cell number and S2R+ cell number: higher = more cells remaining
Hit rule: 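Counted as a hit if cell number falls by a z-score of at least 3 within its plate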
The deposit covers about 21,000 reagents; below is an unselected part of those with a known target gene and a result. Over the whole deposit, 429 (2%) are marked active. 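Values are raw and not normalised between plates; calls rest on per-plate z-scores that were not deposited.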 The numbers tell different reagents against one gene apart. A plus sign joins genes that one reagent is predicted to hit. Not given: the amount of reagent, the time to read-out.

| target gene | reagent no. | Kc cell number, rep 1 | Kc cell number, rep 2 | S2R+ cell number, rep 1 | S2R+ cell number, rep 2 | activity call |
| --- | --- | --- | --- | --- | --- | --- |
| CG13297 | 1 | 1.61e6 | 1.56e6 | 1.25e6 | 1.28e6 | inactive |
| CG6686 | 1 | 1.30e6 | 1.38e6 | 1.02e6 | 1.09e6 | inactive |
| T3dh + pgc | 1 | 1.28e6 | 1.36e6 | 1.02e6 | 1.03e6 | inactive |
| nAChRalpha5 | 1 | 1.51e6 | 1.65e6 | 9.23e5 | 1.15e6 | inactive |
| nAChRalpha5 | 2 | 1.71e6 | 1.66e6 | 1.35e6 | 1.53e6 | inactive |
| nAChRalpha5 | 3 | 1.65e6 | 1.67e6 | 1.34e6 | 1.49e6 | inactive |
| MrgBP | 1 | 1.41e6 | 1.38e6 | 1.30e6 | 1.43e6 | inactive |
| mthl14 | 1 | 1.50e6 | 1.47e6 | 1.00e6 | 1.15e6 | inactive |
| Prosalpha3 | 1 | 1.35e6 | 1.45e6 | 7.88e5 | 4.49e5 | inactive |
| CNMaR | 1 | 1.29e6 | 1.33e6 | 1.13e6 | 1.30e6 | inactive |
| CNMaR | 2 | 1.37e6 | 1.34e6 | 1.39e6 | 1.44e6 | inactive |
| CG31960 | 1 | 1.56e6 | 1.49e6 | 1.21e6 | 1.42e6 | inactive |
| LysP | 1 | 1.51e6 | 1.39e6 | 9.81e5 | 1.31e6 | inactive |
| Cdc16 | 1 | 1.58e6 | 1.58e6 | 1.04e6 | 1.12e6 | inactive |
| CG32694 | 1 | 1.69e6 | 1.59e6 | 1.05e6 | 1.16e6 | inactive |
| CG32694 | 2 | 1.73e6 | 1.86e6 | 1.09e6 | 1.30e6 | inactive |
| Rpn7 | 1 | 9.20e5 | 1.06e6 | 7.12e5 | 7.88e5 | active |
| Cp38 | 1 | 1.57e6 | 1.53e6 | 1.08e6 | 1.19e6 | inactive |
| Or47b | 1 | 1.50e6 | 1.49e6 | 1.20e6 | 1.33e6 | inactive |
| CG15317 | 1 | 1.71e6 | 1.61e6 | 1.08e6 | 1.16e6 | inactive |
| eEF1alpha2 | 1 | 1.27e6 | 1.63e6 | 1.16e6 | 1.14e6 | inactive |
| eEF1alpha2 | 2 | 1.42e6 | 1.42e6 | 9.23e5 | 1.05e6 | inactive |
| CG15425 | 1 | 1.67e6 | 1.64e6 | 1.12e6 | 1.27e6 | inactive |
| CG5515 | 1 | 1.58e6 | 1.76e6 | 1.16e6 | 1.15e6 | inactive |
| CG13216 | 1 | 1.74e6 | 1.65e6 | 1.40e6 | 1.48e6 | inactive |
| CG1889 + CG43386 | 1 | 1.62e6 | 1.49e6 | 1.09e6 | 1.22e6 | inactive |
| CG11350 | 1 | 1.71e6 | 1.70e6 | 9.37e5 | 9.92e5 | inactive |
| CG15530 | 1 | 1.43e6 | 1.46e6 | 9.91e5 | 1.11e6 | inactive |
| CG11109 | 1 | 1.86e6 | 1.88e6 | 1.52e6 | 1.52e6 | inactive |
| Bcat | 1 | 1.69e6 | 1.53e6 | 1.11e6 | 1.17e6 | inactive |
| HBS1 | 1 | 1.57e6 | 1.61e6 | 1.21e6 | 1.15e6 | inactive |
| Drip | 1 | 1.58e6 | 1.59e6 | 1.37e6 | 1.46e6 | inactive |
| side-III | 1 | 1.39e6 | 1.52e6 | 1.23e6 | 1.31e6 | inactive |
| side-III | 2 | 1.50e6 | 1.55e6 | 1.05e6 | 1.15e6 | inactive |
| side-III | 3 | 1.37e6 | 1.38e6 | 1.30e6 | 1.43e6 | inactive |
| Cpr47Ef | 1 | 1.71e6 | 1.76e6 | 1.23e6 | 1.34e6 | inactive |
| CG4502 | 1 | 1.16e6 | 1.24e6 | 4.21e5 | 6.15e5 | inactive |
| Rok | 1 | 1.48e6 | 1.53e6 | 1.02e6 | 1.13e6 | inactive |
| eIF2Bgamma | 1 | 1.39e6 | 1.40e6 | 1.14e6 | 1.19e6 | inactive |
| Lst8 | 1 | 5.93e5 | – | 9.84e5 | – | inactive |
| CG17110 | 1 | 1.39e6 | 1.44e6 | 9.51e5 | 1.07e6 | inactive |
| CG2256 | 1 | 1.58e6 | 1.60e6 | 1.05e6 | 1.18e6 | inactive |
| CG9705 | 1 | 1.65e6 | 1.61e6 | 1.18e6 | 1.22e6 | inactive |
| TfIIA-S-2 | 1 | 1.49e6 | 1.47e6 | 1.08e6 | 1.15e6 | inactive |
| CG5687 | 1 | 1.44e6 | 1.48e6 | 1.14e6 | 1.10e6 | inactive |
| CG8520 | 1 | 1.34e6 | 1.41e6 | 1.15e6 | 1.20e6 | inactive |
| beat-Ic | 1 | 1.48e6 | 1.52e6 | 9.65e5 | 1.19e6 | inactive |
| beat-Ic | 2 | 1.63e6 | 1.67e6 | 1.24e6 | 1.46e6 | inactive |
| CG15233 | 1 | 1.43e6 | 1.53e6 | 1.19e6 | 1.19e6 | inactive |
| Nrk | 1 | 1.57e6 | 1.55e6 | 1.18e6 | 1.32e6 | inactive |
| CG42673 | 1 | 1.47e6 | 1.66e6 | 1.17e6 | 1.36e6 | inactive |
| CG42673 | 2 | 9.62e5 | 7.06e5 | 6.37e5 | 7.21e5 | active |
| CG42673 | 3 | 1.56e6 | 1.46e6 | 1.37e6 | 1.49e6 | inactive |
| CG42673 | 4 | 1.55e6 | 1.62e6 | 1.38e6 | 1.53e6 | inactive |
| CG42673 | 5 | 1.37e6 | 1.85e6 | 1.28e6 | 1.32e6 | inactive |
| CG42673 | 6 | 1.34e6 | 1.43e6 | 1.21e6 | 1.31e6 | inactive |
| CG33757 | 1 | 1.43e6 | 1.48e6 | 9.97e5 | 1.04e6 | inactive |
| Ekar | 1 | 1.54e6 | 1.47e6 | 1.07e6 | 1.17e6 | inactive |
| RpS5b | 1 | 1.36e6 | 1.48e6 | 1.09e6 | 1.18e6 | inactive |
